From publication PMC9354775

The chains behind the UniProt entries cited, without tags or fusion partners.
UniProt Q6WWW4: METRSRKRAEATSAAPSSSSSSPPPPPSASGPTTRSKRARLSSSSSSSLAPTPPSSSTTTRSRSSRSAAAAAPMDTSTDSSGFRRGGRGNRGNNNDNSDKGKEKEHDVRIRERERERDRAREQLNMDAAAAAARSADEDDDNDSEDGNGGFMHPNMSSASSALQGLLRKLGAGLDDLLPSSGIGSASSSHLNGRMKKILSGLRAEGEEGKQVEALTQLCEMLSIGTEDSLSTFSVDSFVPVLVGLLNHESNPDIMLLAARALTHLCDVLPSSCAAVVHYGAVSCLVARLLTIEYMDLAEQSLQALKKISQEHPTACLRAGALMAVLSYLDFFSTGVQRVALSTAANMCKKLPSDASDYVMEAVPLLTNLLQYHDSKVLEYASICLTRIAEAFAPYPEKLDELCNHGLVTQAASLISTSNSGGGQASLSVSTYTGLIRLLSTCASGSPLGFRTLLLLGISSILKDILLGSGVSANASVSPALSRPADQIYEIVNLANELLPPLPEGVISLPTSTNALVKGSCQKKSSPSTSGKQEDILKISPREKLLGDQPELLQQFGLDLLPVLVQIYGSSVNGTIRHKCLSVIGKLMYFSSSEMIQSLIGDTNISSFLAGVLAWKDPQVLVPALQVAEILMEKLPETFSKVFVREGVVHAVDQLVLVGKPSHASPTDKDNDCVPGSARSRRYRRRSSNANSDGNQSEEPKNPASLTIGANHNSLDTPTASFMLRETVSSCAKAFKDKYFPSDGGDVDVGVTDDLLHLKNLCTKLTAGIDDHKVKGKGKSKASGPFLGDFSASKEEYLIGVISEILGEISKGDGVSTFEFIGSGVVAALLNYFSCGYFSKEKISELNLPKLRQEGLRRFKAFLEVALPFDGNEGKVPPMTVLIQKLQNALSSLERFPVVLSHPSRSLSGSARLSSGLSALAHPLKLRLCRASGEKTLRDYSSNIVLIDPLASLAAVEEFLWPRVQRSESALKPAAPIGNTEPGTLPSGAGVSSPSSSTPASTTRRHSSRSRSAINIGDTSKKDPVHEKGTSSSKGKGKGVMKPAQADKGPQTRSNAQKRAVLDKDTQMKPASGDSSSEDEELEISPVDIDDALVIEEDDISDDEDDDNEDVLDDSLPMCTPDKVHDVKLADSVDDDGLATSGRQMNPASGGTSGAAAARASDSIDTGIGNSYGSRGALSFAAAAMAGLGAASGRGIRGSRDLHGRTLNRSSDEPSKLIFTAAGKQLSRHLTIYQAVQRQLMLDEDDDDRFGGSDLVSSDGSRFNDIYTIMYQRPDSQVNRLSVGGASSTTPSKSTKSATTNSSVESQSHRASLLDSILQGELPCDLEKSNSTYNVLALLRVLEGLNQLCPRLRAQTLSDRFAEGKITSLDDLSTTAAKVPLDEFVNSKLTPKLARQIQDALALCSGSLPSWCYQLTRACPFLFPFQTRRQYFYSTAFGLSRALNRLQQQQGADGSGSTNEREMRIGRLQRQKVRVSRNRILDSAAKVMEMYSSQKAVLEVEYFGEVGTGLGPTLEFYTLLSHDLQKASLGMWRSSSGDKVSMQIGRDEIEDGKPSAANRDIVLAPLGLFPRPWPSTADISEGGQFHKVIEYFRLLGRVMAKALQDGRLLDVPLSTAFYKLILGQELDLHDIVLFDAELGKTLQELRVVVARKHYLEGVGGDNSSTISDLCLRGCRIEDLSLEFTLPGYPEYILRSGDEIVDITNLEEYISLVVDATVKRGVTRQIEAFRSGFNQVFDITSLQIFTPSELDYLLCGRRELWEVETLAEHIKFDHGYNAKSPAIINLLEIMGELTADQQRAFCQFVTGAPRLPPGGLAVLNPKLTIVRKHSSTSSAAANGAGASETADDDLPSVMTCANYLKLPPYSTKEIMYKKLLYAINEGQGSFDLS

B1: phosphoenolpyruvate carboxylase 2 (PPC2) (enzyme, UniProt Q5GM68 1-963)
chain: MAARNLEKMASIDAQLRLLAPGKVSEDDKLIEYDALLLDRFLDILQDLHGEDVREFVQECYEVAADYDGNRNTEKLEELGNMLTSLDPGDSIVVTKSFSNMLSLANLAEEVQIAYRRRIKKLKKGDFADEASATTESDIEETLKRLLQLNKTPEEVFDALKNQTVDLVLTAHPTQSVRRSLLQKFGRIRDCLTQLYAKDITPDDKQELDEALQREIQAAFRTDEIRRTPPTPQDEMRAGMSYFHETIWKGVPKFLRRVDTALKNIGINERVPYNAPLIQFSSWMGGDRDGNPRVTPEVTRDVCLLARMMAANLYFSQIEDLMFEMSMWRCNEELRVRAERQRCAKRDAKHYIEFWKQIPANEPYRAILGDVRDKLYNTRERARQLLSSGVSDVPEDAVFTSVDQFLEPLELCYRSLCDCGDRPIADGSLLDFLRQVSTFGLALVKLDIRQESERHSDVLDAITTHLGIGSYKEWSEDKRQEWLLSELSGKRPLFGPDLPKTEEVADVLDTFKVISELPSDSFGAYIISMATAPSDVLAVELLQRECGITDPLRVVPLFEKLADLESAPAAVARLFSIEWYRNRINGKQEVMIGYSDSGKDAGRLSAAWQLYKTQEELVKVAKEYGVKLTMFHGRGGTVGRGGGPTHLAILSQPPDTIHGQLRVTVQGEVIEQSFGEEHLCFRTLQRFTAATLEHGMHPPVSPKPEWRVLMDEMAIIATEEYRSVVFKEPRFVEYFRLATPELEYGRMNIGSRPSKRKPSGGIESLRAIPWIFAWTQTRFHLPVWLGFGGAFKRVIQKDSKNLNMLKEMYNQWPFFRVTIDLVEMVFAKGDPGIAALYDRLLVSEELQPFGEQLRVNYQETRRLLLQVAGHKDILEGDPYLRQRLQLRDPYITTLNVCQAYTLKQIRDPSFHVKVRPHLSKDYMESSPAAELVKLNPKSEYAPGLEDTVILTMKGIAAGMQNTG
B2: LOS1 (protein, UniProt Q9ASR1 1-843)
chain: MVKFTADELRRIMDYKHNIRNMSVIAHVDHGKSTLTDSLVAAAGIIAQEVAGDVRMTDTRADEAERGITIKSTGISLYYEMTDESLKSFTGARDGNEYLINLIDSPGHVDFSSEVTAALRITDGALVVVDCIEGVCVQTETVLRQALGERIRPVLTVNKMDRCFLELQVDGEEAYQTFSRVIENANVIMATYEDPLLGDVQVYPEKGTVAFSAGLHGWAFTLTNFAKMYASKFGVVESKMMERLWGENFFDPATRKWSGKNTGSPTCKRGFVQFCYEPIKQIIATCMNDQKDKLWPMLAKLGVSMKNDEKELMGKPLMKRVMQTWLPASTALLEMMIFHLPSPHTAQRYRVENLYEGPLDDQYANAIRNCDPNGPLMLYVSKMIPASDKGRFFAFGRVFAGKVSTGMKVRIMGPNYIPGEKKDLYTKSVQRTVIWMGKRQETVEDVPCGNTVAMVGLDQFITKNATLTNEKEVDAHPIRAMKFSVSPVVRVAVQCKVASDLPKLVEGLKRLAKSDPMVVCTMEESGEHIVAGAGELHLEICLKDLQDDFMGGAEIIKSDPVVSFRETVCDRSTRTVMSKSPNKHNRLYMEARPMEEGLAEAIDDGRIGPRDDPKIRSKILAEEFGWDKDLAKKIWAFGPETTGPNMVVDMCKGVQYLNEIKDSVVAGFQWASKEGPLAEENMRGICFEVCDVVLHSDAIHRGGGQVIPTARRVIYASQITAKPRLLEPVYMVEIQAPEGALGGIYSVLNQKRGHVFEEMQRPGTPLYNIKAYLPVVESFGFSSQLRAATSGQAFPQCVFDHWEMMSSDPLEPGTQASVLVADIRKRKGLKEAMTPLSEFEDKL

Target: UPL3-GFP (A. thaliana) (UniProt Q6WWW4)
Experiment: affinity purification with mass spectrometry; GFP nanotrap (GBP beads) on lysate of rosette leaves of 6-wk-old ACTIN3:UPL3-GFP plants; IP buffer 50 mM Tris-HCl pH 7.4, 150 mM NaCl, 1 mM EDTA, 1% Nonidet P-40, 10% glycerol; 4°C, 2 h; hits of ACTIN3:GFP control plants subtracted

Binder	binding
B1	binds
B2	binds

Results are given in words; binding and its absence hold for the method and conditions named. In cells and extracts the contact can be indirect. A yes stands for co-enrichment or nearness to the bait. Other partners may have been found.
